# Assay results taken from patent US11353461B2, “Methods of enhancing MS detection of tagged glycans” (WATERS TECHNOLOGIES CORPORATION, priority 2016, dated 2022).
# What was measured:
# [1] = HILIC-MS response factors of N-glycans labeled with Compounds 1, 2 and 3 (Synapt G2-S); parameters: species or system murine; details: ESI+ MS
# Experimental: The response factors of N-glycans (glycosylamines) labeled with Compounds 1, 2 and 3 were evaluated via HILIC separations obtained with a UHPLC chromatograph (ACQUITY UPLC H-Class Bio, Waters, Milford, Mass.). Labeled glycans from 0.4 μg glycoprotein were separated using a 2.1×50 mm column packed with 1.7 μm amide bonded organosilica (130 Å) stationary phase (ACQUITY UPLC Glycan BEH Amide 130 Å, Waters, Milford, Mass.) along with an aqueous mobile phase comprised of 50 mM ammonium formate (pH 4.4) and another of ACN. Samples were injected as 1 μL aqueous volumes and separated at 60° C. with a flow rate of 0.4 mL/min and a 35-minute gradient going from 25 to 46% aqueous mobile phase. Eluting glycans were detected by positive ion mode electrospray ionization mass spectrometry using an ion mobility capable QT of mass spectrometer (Synapt G2-S, Waters, Milford, Mass.) operating with a capillary voltage of 3.0 kV, source temperature of 120° C., desolvation temperature of 350° C., and sample cone voltage of 80 V. Mass spectra were acquired at a rate of 1 Hz with a resolution of approximately 20,000 over a range of 500-2500 m/z.
# [2] = HILIC-MS response factors of N-glycans labeled with Compounds 1, 4 and 5 (Xevo G2-XS); parameters: species or system murine
# Experimental: The response factors of N-glycans (glycosylamines) labeled with Compounds 1, 4 and 5 were evaluated via HILIC separations obtained with a UHPLC chromatograph (ACQUITY UPLC H-Class Bio, Waters, Milford, Mass.). Labeled glycans from 0.1 μg glycoprotein were separated using a 2.1×50 mm column packed with 1.7 μm amide bonded organosilica (130 Å) stationary phase (ACQUITY UPLC Glycan BEH Amide 130 Å, Waters, Milford, Mass.) along with an aqueous mobile phase comprised of 50 mM ammonium formate (pH 4.4) and another of ACN. Samples were injected as 0.2 μL aqueous volumes and separated at 60° C. with a flow rate of 0.4 mL/min and a 35-minute gradient going from 25 to 46% aqueous mobile phase. Eluting glycans were detected by positive ion mode electrospray ionization mass spectrometry using a QT of mass spectrometer (Xevo G2-XS QT of, Waters, Milford, Mass.) operating with a capillary voltage of 2.2 kV, source temperature of 120° C., desolvation temperature of 450° C., and sample cone voltage of 75 V. Mass spectra were acquired at a rate of 2 Hz with a resolution of approximately 40,000 over a range of 500-2500 m/z.
smiles,measurement,setting,value
CCN(CC)CCNC(=O)c1ccc2cc(NC(=O)ON3C(=O)CCC3=O)ccc2n1 [RapiFluor-MS],increase in MS response versus a benzamide label (from Compound 2),[1],~600 ×
same,increase in MS response versus a quinoline label (from Compound 3),[1],~200 ×
same,increase in MS response versus procainamide and procaine-based labels (from Compounds 4 and 5),"[2]; ESI+ MS, labeled glycans",~2 ×
same,average charge states of labeled glycans,"[2]; FA2Ga1Sg1 N-glycan, compared with Compounds 4 and 5 (FIG. 8)",comparatively higher average charge states
